{"source": "patent US20060134186A1", "about": "“Oxygenating agents for enhancing host responses to microbial infections” (priority 2002, published 2006)", "system": "strain of B. fragilis being used", "experiment": "Bactericidal activity of the antibiotic against the strain used in Example 4", "assay_type": "cell-based, Bacteroides fragilis", "conditions": "previously confirmed", "note": "For at least one compound, name, drawing or mass did not settle the structure.", "data": [{"smiles": "CCC[C@@H]1C[C@@H](C(=O)N[C@@H]([C@H]2O[C@H](SC)[C@H](O)[C@@H](O)[C@H]2O)[C@H](C)Cl)N(C)C1", "note": "[clindamycin]", "values": [{"measurement": "bactericidal activity", "result": "bactericidal"}]}]}
